Binding data for one substance are collected here from PMC5339802 (2017).

By UniProt entry, the sequences of proteins in these tests, tags left out.
UniProt Q9Y4I1: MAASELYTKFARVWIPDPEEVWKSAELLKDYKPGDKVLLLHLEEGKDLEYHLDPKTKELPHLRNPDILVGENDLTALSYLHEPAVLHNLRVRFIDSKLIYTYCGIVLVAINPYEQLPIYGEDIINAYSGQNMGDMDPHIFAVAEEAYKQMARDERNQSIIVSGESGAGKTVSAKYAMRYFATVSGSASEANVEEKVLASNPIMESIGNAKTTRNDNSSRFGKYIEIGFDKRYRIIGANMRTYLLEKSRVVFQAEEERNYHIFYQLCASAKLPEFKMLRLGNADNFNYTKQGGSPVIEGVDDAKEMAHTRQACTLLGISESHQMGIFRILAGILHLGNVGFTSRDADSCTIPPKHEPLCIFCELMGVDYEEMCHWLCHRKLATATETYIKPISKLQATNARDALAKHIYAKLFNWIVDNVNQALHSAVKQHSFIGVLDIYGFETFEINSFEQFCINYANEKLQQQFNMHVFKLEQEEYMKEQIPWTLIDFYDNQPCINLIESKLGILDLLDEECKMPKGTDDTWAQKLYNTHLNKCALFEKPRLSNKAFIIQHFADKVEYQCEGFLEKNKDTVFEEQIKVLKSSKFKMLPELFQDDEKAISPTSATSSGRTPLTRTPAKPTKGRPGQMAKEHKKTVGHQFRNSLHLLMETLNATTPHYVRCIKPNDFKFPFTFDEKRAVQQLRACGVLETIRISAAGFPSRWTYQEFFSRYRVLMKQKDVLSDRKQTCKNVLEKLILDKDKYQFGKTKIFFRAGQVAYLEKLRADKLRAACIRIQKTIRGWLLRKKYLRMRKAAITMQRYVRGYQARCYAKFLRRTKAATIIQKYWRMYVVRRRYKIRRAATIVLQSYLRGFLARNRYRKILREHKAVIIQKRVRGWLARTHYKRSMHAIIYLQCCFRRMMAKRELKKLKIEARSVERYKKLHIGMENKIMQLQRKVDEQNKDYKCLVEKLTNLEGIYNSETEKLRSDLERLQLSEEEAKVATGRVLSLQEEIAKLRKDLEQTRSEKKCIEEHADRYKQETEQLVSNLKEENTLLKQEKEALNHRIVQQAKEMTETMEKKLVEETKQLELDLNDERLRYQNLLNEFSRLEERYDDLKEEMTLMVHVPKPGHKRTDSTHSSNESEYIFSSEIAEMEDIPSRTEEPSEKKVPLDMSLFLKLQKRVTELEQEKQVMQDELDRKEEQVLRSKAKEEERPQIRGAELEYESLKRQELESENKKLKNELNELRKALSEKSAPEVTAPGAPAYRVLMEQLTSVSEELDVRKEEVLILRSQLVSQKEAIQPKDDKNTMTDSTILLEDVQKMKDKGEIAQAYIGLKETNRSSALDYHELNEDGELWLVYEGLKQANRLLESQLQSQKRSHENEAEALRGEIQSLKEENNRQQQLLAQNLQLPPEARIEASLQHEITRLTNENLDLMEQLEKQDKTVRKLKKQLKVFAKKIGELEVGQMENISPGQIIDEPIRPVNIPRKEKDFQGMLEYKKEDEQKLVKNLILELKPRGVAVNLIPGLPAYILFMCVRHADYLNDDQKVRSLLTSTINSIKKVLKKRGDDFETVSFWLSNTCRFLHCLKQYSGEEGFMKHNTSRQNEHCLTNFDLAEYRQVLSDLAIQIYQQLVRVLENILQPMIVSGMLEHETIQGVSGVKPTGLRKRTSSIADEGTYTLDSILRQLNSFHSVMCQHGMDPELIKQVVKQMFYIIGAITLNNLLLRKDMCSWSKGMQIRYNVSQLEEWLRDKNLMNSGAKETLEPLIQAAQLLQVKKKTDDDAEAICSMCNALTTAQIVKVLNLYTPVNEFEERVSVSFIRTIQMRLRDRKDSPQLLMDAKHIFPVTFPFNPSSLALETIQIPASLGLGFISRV
UniProt Q68CZ1: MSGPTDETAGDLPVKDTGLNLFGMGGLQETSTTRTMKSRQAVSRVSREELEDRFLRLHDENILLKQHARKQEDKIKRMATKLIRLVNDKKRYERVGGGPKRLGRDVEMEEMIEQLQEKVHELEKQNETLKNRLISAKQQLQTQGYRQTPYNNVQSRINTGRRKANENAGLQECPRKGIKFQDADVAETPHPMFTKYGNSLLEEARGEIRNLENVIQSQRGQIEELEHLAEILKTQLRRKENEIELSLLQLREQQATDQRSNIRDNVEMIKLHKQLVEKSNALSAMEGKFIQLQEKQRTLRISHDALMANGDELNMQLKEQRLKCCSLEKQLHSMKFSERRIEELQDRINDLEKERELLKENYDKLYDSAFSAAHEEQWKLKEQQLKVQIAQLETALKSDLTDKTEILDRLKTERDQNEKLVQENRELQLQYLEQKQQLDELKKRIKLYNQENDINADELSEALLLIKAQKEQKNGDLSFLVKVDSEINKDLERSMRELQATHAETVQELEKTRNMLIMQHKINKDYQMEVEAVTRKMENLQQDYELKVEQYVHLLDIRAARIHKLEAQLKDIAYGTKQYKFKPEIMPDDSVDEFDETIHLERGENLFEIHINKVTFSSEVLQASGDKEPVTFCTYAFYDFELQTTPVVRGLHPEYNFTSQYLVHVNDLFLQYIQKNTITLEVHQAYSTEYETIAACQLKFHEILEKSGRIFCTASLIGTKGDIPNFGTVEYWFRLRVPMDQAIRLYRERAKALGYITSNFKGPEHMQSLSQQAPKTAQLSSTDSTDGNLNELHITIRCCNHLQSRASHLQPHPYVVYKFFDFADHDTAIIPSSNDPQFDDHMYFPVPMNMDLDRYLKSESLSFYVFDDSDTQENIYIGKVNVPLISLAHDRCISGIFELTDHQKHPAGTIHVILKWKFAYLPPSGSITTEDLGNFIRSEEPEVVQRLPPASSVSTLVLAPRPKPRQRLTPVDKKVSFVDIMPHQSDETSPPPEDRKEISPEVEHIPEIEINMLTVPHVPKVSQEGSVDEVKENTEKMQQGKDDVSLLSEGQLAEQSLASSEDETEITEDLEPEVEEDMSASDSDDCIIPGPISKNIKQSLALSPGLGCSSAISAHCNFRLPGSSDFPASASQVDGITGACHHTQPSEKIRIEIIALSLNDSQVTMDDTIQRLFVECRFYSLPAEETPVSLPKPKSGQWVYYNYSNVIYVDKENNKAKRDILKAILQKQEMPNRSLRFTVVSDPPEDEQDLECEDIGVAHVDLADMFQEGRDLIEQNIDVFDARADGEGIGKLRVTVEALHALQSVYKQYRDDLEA

For the assay, the target named is Myosin Va (MyoVa), endogenous (human (endogenous in hTERT RPE-1)) (UniProt Q9Y4I1). The assay can be described thus: proximity ligation; in situ PLA (Duolink) in fixed, serum-starved ciliated hTERT RPE-1 cells with rabbit anti-MyoVa and goat anti-RPGRIP1L; control without primary antibodies.

Results are given in words; binding and its absence hold for the method and conditions named. In cells and extracts the contact can be indirect. Some entries that bind do so weakly or less than the wild type.

Consider “RPGRIP1L, endogenous (from UniProt Q68CZ1 1-1315)”, for which the binding result is listed as “binds”.
